In paper PMC9821108, “Biochemical and Structural Analyses Shed Light on the Mechanisms of RadD DNA Binding and Its ATPase from Escherichia coli” (International Journal of Molecular Sciences, 2023) one finds binding data, which are given here for one substance.

Amino acid sequences for entries named in this document (tags omitted).
UniProt P0AGE0: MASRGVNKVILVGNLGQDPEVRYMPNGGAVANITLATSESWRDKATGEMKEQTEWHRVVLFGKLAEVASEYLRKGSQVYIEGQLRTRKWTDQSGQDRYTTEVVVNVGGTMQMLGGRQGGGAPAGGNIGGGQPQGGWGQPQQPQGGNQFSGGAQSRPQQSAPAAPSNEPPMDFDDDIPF

This experiment deals with T1, RadD (Escherichia coli) (UniProt P33919).
T1 sequence: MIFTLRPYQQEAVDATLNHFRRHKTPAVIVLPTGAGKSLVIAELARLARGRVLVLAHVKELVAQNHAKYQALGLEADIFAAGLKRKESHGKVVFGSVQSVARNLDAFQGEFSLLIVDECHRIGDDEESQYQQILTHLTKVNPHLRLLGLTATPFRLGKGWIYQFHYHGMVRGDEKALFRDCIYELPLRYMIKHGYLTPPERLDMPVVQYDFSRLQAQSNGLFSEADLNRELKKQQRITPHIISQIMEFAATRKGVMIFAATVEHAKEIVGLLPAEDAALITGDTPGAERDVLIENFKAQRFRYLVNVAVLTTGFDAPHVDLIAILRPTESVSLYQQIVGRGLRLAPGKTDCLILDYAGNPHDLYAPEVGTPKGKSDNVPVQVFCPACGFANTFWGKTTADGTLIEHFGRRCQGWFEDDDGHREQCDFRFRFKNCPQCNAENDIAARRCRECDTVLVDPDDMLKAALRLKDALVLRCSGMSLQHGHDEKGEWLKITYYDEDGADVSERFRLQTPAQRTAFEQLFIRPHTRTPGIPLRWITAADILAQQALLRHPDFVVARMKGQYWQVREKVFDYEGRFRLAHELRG
In words: SEC; molecular exclusion chromatography of RadD with SSB, in vitro (Figure S1); both purified. In general terms: Size exclusion chromatography separates by hydrodynamic size, large species first.

No constants are given. Whether binding was seen depends on the method and setting. Some binding calls cover weakened binding; strength is not graded here.

Turning to “single-stranded DNA-binding protein (SSB) (from UniProt P0AGE0 1-178)”, the binding entry was “binds”.
